This test addresses transcription factor Sp1 (human (endogenous in U2OS)) (UniProt P08047). The experiment in a line: co-IP.

Chains of the proteins cited; added tags and fusions are not shown.
UniProt P08047: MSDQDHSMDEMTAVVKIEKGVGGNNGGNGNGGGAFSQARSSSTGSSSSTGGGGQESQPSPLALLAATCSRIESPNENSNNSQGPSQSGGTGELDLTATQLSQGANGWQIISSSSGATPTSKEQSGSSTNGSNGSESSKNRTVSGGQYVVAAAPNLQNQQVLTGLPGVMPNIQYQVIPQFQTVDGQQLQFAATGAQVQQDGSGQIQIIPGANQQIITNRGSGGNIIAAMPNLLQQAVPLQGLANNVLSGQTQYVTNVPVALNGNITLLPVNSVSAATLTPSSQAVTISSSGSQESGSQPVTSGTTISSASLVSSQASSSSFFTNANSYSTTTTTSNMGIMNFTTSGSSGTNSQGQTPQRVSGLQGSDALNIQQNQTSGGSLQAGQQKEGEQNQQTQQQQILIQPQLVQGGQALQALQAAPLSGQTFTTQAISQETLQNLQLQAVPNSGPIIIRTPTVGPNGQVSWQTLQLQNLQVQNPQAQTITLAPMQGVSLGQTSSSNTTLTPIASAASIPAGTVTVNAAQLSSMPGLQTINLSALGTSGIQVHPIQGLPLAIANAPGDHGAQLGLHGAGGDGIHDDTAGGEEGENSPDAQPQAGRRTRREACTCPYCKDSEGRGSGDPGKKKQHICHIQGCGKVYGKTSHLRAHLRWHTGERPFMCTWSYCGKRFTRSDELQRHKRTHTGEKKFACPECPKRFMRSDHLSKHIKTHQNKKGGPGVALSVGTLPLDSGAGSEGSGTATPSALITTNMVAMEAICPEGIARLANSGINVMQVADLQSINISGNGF
UniProt Q16666: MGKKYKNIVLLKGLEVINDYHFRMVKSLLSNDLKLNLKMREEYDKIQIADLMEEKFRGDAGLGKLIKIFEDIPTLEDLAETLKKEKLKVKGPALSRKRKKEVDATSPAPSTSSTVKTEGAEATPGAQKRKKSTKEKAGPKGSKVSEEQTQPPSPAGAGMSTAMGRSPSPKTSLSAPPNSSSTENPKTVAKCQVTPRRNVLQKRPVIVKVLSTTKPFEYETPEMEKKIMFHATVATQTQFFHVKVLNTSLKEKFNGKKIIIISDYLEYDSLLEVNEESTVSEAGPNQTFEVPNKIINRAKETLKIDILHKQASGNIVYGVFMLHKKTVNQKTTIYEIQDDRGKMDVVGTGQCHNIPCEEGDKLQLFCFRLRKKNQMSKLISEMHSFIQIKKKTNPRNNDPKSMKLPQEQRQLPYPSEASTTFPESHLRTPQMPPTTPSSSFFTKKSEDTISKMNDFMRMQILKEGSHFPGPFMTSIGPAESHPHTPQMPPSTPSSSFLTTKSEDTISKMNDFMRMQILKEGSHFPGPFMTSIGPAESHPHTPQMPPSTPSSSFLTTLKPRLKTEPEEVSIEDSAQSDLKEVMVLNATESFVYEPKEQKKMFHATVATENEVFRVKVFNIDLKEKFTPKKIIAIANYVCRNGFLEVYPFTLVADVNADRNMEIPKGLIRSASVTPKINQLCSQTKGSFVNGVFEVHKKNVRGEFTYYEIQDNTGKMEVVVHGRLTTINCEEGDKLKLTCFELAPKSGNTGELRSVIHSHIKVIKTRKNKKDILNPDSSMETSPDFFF

This note sets out measurements from doi:10.1101/2024.01.22.576730.

These are yes or no findings as the source states them, for the method shown. In cells and extracts the contact can be indirect. Some binding calls cover weakened binding; strength is not graded here.

As to “interferon-ɣ inducible factor 16 (IFI16) (from UniProt Q16666 1-785)”, the binding entry is on record as “binds”.
